Measurements published in article doi:10.1101/364463 (bioRxiv, 2019).

The chains behind the UniProt entries cited, without tags or fusion partners.
UniProt Q24117: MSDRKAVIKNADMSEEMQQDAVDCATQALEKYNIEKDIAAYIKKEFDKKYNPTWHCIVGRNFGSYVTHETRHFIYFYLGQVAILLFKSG

Molecular target: FLAG-dDYNLL1 (expressed in S2 cells) (Drosophila) (UniProt Q24117)
Assay: affinity purification with mass spectrometry

binding: binds
B1: PI31 of S2 cells (endogenous) (protein, UniProt Q9V637 1-270)
chain: MESGSTAKTGDFFYGWDLLYKTVKADVSKKSDLLIALVHFLLTKHYNFRCVGVGDDKTLPEEEGSELLPDSWNDDDTKYSLRYVHDKMLYLLLGHITEGSLLINLLDINTKKVSNICVEPETLVPEVKGGITTIMPSASEIVERYRRELLDPVFTGNSREVTTQTTNSPRPIGSDPDPLRIGEPRRGGSFIPSAFEPRPFGFPDVGRGDLDPLGRGGHGNLFSFPSRPNMGPGPVPRFDPFNPLNPNRPGQGGINPDHMRPPDWNPDYYM

These are yes or no findings as the source states them, for the method shown. In cells and extracts the contact can be indirect. Here binding means that the protein was enriched with, or labelled near, the bait; the list need not be complete.
